# Test results published in publication PMC1852116.
# Molecular target: T1, Bright (177-601) (UniProt Q62431)
# T1 sequence (looked up): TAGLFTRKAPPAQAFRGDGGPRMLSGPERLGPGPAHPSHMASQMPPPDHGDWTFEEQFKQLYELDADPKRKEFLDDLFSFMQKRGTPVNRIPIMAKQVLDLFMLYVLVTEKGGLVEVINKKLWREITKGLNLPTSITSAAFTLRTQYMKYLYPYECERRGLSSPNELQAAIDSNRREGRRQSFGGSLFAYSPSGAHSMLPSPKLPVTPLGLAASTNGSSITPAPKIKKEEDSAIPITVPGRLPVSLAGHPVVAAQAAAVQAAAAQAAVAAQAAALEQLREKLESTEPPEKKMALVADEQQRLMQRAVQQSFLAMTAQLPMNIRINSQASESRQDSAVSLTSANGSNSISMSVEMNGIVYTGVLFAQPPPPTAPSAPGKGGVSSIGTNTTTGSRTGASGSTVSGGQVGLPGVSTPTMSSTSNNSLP
# Assay: competition with a labelled probe
# Conditions: ~150-fold molar excess of unlabelled P2 oligo against 5' Emu MAR probe; EMSA: ~2 ug nuclear extract or ~20 ng Bright (177-601), ~80,000 cpm probe, 20 min at room temperature, 4% polyacrylamide gel; salt and pH not given (refs 21, 66); recombinant protein; residues 177-601; protein details: N-terminal 6xHis
sequence,measurement,value
CTTTTAACAATAATAAATTAAGTTTAAAATATTTTT (double strand) [P2 site duplex oligonucleotide (wild type)],binding result,binds

# Construct, isoform or probe ends are uncertain for at least one entry. At least one verdict rests on a figure or table, not on a statement of the authors. Where a protein sequence is shown, tags need not be part of it.
